This is an account of results in paper PMC10618185.

What all share (test): affinity purification with mass spectrometry; WT HeLa cells with single expression of Myc- or HA-tagged bait; IP with anti-Myc or anti-HA antibodies and magnetic beads; eluate resolved by SDS-PAGE, in-gel trypsin digestion, LC-MS/MS (MASCOT, Scaffold 5); high probability threshold
For test [1], the target named is T1, Myc-VPS8 (human (cDNA from HeLa Kyoto cells)), Q8N3P4.
T1 chain: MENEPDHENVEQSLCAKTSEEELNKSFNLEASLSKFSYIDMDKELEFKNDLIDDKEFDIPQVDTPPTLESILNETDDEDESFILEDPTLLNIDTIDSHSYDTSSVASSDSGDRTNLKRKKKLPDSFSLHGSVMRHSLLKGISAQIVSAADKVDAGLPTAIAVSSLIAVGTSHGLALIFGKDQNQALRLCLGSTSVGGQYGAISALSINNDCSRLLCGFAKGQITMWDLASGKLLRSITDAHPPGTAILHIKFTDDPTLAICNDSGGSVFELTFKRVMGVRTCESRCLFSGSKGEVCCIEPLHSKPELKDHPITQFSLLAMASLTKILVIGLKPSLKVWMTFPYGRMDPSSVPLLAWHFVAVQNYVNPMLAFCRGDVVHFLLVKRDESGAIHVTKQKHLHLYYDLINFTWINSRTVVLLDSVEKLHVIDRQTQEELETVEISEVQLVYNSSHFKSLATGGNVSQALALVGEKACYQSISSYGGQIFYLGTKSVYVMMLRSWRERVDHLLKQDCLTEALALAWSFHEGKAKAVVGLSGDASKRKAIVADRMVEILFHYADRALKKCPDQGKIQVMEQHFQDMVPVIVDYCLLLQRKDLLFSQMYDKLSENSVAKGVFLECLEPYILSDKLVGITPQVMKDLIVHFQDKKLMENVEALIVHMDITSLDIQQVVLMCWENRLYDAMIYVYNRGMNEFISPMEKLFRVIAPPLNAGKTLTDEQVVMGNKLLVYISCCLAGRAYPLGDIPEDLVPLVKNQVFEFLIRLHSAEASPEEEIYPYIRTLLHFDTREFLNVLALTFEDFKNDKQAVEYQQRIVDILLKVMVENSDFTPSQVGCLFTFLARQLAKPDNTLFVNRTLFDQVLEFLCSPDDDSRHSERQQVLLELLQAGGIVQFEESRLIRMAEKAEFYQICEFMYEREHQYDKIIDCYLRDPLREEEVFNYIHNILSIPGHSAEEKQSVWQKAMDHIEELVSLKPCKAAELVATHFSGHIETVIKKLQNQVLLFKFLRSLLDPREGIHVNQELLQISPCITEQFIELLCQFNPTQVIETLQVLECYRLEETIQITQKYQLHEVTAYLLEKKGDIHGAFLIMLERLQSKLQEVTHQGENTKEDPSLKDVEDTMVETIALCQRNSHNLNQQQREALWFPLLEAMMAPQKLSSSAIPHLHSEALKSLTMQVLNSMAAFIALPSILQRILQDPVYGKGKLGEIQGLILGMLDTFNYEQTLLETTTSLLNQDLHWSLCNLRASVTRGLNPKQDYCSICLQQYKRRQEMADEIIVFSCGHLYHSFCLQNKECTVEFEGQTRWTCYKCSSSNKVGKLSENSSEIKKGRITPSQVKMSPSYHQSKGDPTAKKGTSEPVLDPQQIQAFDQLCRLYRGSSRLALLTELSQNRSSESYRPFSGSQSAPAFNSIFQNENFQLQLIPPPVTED
The following applies: remark: other sources report otherwise.

In test [2] the target is T2, HA-VPS3 (human (cDNA from HeLa Kyoto cells)), Q8WUH2.
T2 chain: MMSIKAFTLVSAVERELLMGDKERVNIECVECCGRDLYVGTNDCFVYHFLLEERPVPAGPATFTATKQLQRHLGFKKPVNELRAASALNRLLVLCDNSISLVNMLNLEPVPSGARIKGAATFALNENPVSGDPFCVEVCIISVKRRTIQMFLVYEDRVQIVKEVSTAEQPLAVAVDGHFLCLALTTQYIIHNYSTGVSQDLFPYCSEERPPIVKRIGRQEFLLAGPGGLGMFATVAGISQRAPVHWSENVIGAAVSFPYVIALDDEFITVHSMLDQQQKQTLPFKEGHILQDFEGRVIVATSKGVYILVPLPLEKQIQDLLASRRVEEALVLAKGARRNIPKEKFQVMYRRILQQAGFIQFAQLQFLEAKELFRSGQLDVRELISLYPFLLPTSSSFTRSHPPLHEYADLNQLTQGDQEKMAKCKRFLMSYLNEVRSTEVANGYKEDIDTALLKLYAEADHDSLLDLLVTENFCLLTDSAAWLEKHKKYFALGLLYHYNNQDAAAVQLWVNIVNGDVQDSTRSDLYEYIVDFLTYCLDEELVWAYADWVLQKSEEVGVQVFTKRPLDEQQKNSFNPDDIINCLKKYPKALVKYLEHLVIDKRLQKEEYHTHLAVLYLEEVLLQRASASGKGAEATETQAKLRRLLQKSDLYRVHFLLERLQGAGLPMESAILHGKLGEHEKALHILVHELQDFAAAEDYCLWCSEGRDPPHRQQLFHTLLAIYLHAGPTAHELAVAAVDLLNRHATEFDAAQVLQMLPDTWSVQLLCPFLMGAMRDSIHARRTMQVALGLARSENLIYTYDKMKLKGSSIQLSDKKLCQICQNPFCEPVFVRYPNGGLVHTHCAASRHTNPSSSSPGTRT
The following applies: remark: other sources report otherwise.

The target in test [3] is T3, HA-VPS3 (human (cDNA from HeLa Kyoto cells)) (UniProt Q8WUH2).
T3 sequence: T2 chain

These are yes or no findings as the source states them, for the method shown. In cells and extracts the contact can be indirect. A yes stands for co-enrichment or nearness to the bait. Other partners may have been found. For some of these results: No binding means not detected with the bait. Tags and fused reporters may be left off the sequences shown.

B1: endogenous VPS41, P49754 1-854 (protein)
chain: MAEAEEQETGSLEESTDESEEEESEEEPKLKYERLSNGVTEILQKDAASCMTVHDKFLALGTHYGKVYLLDVQGNITQKFDVSPVKINQISLDESGEHMGVCSEDGKVQVFGLYSGEEFHETFDCPIKIIAVHPHFVRSSCKQFVTGGKKLLLFERSWMNRWKSAVLHEGEGNIRSVKWRGHLIAWANNMGVKIFDIISKQRITNVPRDDISLRPDMYPCSLCWKDNVTLIIGWGTSVKVCSVKERHASEMRDLPSRYVEIVSQFETEFYISGLAPLCDQLVVLSYVKEISEKTEREYCARPRLDIIQPLSETCEEISSDALTVRGFQENECRDYHLEYSEGESLFYIVSPRDVVVAKERDQDDHIDWLLEKKKYEEALMAAEISQKNIKRHKILDIGLAYINHLVERGDYDIAARKCQKILGKNAALWEYEVYKFKEIGQLKAISPYLPRGDPVLKPLIYEMILHEFLESDYEGFATLIREWPGDLYNNSVIVQAVRDHLKKDSQNKTLLKTLAELYTYDKNYGNALEIYLTLRHKDVFQLIHKHNLFSSIKDKIVLLMDFDSEKAVDMLLDNEDKISIKKVVEELEDRPELQHVYLHKLFKRDHHKGQRYHEKQISLYAEYDRPNLLPFLRDSTHCPLEKALEICQQRNFVEETVYLLSRMGNSRSALKMIMEELHDVDKAIEFAKEQDDGELWEDLILYSIDKPPFITGLLNNIGTHVDPILLIHRIKEGMEIPNLRDSLVKILQDYNLQILLREGCKKILVADSLSLLKKMHRTQMKGVLVDEENICESCLSPILPSDAAKPFSVVVFHCRHMFHKECLPMPSMNSAAQFCNICSAKNRGPGSAILEMKK
On to B1, for which the binding entry in test [1] is “no binding”; in test [2], “binds”.

B2: endogenous VPS39 (protein, UniProt Q96JC1 1-886)
chain: MHDAFEPVPILEKLPLQIDCLAAWEEWLLVGTKQGHLLLYRIRKDVVPADVASPESGSCNRFEVTLEKSNKNFSKKIQQIHVVSQFKILVSLLENNIYVHDLLTFQQITTVSKAKGASLFTCDLQHTETGEEVLRMCVAVKKKLQLYFWKDREFHELQGDFSVPDVPKSMAWCENSICVGFKRDYYLIRVDGKGSIKELFPTGKQLEPLVAPLADGKVAVGQDDLTVVLNEEGICTQKCALNWTDIPVAMEHQPPYIIAVLPRYVEIRTFEPRLLVQSIELQRPRFITSGGSNIIYVASNHFVWRLIPVPMATQIQQLLQDKQFELALQLAEMKDDSDSEKQQQIHHIKNLYAFNLFCQKRFDESMQVFAKLGTDPTHVMGLYPDLLPTDYRKQLQYPNPLPVLSGAELEKAHLALIDYLTQKRSQLVKKLNDSDHQSSTSPLMEGTPTIKSKKKLLQIIDTTLLKCYLHTNVALVAPLLRLENNHCHIEESEHVLKKAHKYSELIILYEKKGLHEKALQVLVDQSKKANSPLKGHERTVQYLQHLGTENLHLIFSYSVWVLRDFPEDGLKIFTEDLPEVESLPRDRVLGFLIENFKGLAIPYLEHIIHVWEETGSRFHNCLIQLYCEKVQGLMKEYLLSFPAGKTPVPAGEEEGELGEYRQKLLMFLEISSYYDPGRLICDFPFDGLLEERALLLGRMGKHEQALFIYVHILKDTRMAEEYCHKHYDRNKDGNKDVYLSLLRMYLSPPSIHCLGPIKLELLEPKANLQAALQVLELHHSKLDTTKALNLLPANTQINDIRIFLEKVLEENAQKKRFNQVLKNLLHAEFLRVQEERILHQQVKCIITEEKVCMVCKKKIGNSAFARYPNGVVVHYFCSKEVNPADT
Take B2: in test [3], the binding result is reported as “no binding”.

B3: endogenous VPS8 (protein, UniProt Q8N3P4 1-1428)
chain: T1 chain
On to B3, for which the binding entry in test [3] is on record as “binds”.
